This note sets out measurements from the supplement of paper PMC4604168 (melanoma cell lines).

Some of the results follow. Repeats are few or missing, and single values can be far off.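 The apoptosis fraction was the count of cleaved-PARP antibody-stained nuclei relative to all DNA-stained nuclei, imaged in 1,536-well plates. Screening doses were set so most cells survived, and baseline and induced cleaved-PARP levels vary greatly across cell lines.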

In the test the test system is COLO792. In words: cleaved PARP positive nuclei fraction relative to DMSO control; melanoma cells; higher = more apoptosis. As to conditions: library dose: low library concentration; 72 h.
For the compound `Cn1sc(=O)n(Cc2ccccc2)c1=O` + CCN(CC)CCCCNc1ncc2cc(-c3cc(OC)cc(OC)c3)c(NC(=O)NC(C)(C)C)nc2n1 [PD173074] (first compound 0.4 µM, partner dose 0.1 µM), the “cleaved PARP positive nuclei fraction” value amounted to 92.8%. Next, `CCN(CC)CCNC(=O)c1c(C)[nH]c(/C=C2\C(=O)Nc3ccc(F)cc32)c1C` [sunitinib] + CCCCCCCCCCCC1=C(O)C(=O)C=C(O)C1=O [Embelin] (first compound 0.4 µM, partner dose 1.2 µM): 66.1%. On to `CN(c1ncccc1CNc1nc(Nc2ccc3c(c2)CC(=O)N3)ncc1C(F)(F)F)S(C)(=O)=O` + COc1ccc(-c2ccc3c(N4CCOCC4)nc(N4C[C@@H](C)O[C@@H](C)C4)nc3n2)cc1CO [KU0063794] (first compound 0.08 µM, partner dose 0.02 µM), for which the “cleaved PARP positive nuclei fraction” value came to 140%. As for `CCN(CC)CCNC(=O)c1c(C)[nH]c(/C=C2\C(=O)Nc3ccc(F)cc32)c1C` [sunitinib] + CCN(CC)CCCCNc1ncc2cc(-c3cc(OC)cc(OC)c3)c(NC(=O)NC(C)(C)C)nc2n1 [PD173074] (first compound 0.4 µM, partner dose 0.1 µM), the figure is 126%; as for `Cn1cnc2c(F)c(Nc3ccc(Br)cc3Cl)c(C(=O)NOCCO)cc21` [selumetinib] + O=C(Nc1ccccc1)c1cc([N+](=O)[O-])ccc1Cl [GW9662] (first compound 0.015 µM, partner dose 2 µM), 102%. Regarding `C[C@@H](N)c1ccc(C(=O)Nc2ccnc3[nH]ccc23)cc1` + COc1ccc2c(c1)CCC1C2CCC2(C)C(NCCCCCCN3C(=O)C=CC3=O)CCC12 [U73122] (first compound 0.4 µM, partner dose 0.4 µM), the “cleaved PARP positive nuclei fraction” value is 141%.
